According to article PMC3036580:
These are yes or no findings as the source states them, for the method shown. Binding seen in cells or lysates may run through a third protein. Some results given as binding are weak or reduced against the parent protein; the word gives no strength. Sequences can lack the tags named with a protein. Each block holds one binder with its values, some of them ahead of it.

Columns and labels:
[1] = target: T1, growth hormone receptor (rabbit, wild type) (rabbit) (UniProt P19941); test: co-IP; GHR immunoprecipitated with anti-GHR and protein A beads from lysates of GHR-expressing Hek293 cells transfected with Flag-Jak2 constructs; lysis in 20 mM Tris pH 8.0, 150 mM NaCl, 0.5% NP40; blot with anti-Flag; cells with or without GH for 15 min at 37°C
T1 sequence: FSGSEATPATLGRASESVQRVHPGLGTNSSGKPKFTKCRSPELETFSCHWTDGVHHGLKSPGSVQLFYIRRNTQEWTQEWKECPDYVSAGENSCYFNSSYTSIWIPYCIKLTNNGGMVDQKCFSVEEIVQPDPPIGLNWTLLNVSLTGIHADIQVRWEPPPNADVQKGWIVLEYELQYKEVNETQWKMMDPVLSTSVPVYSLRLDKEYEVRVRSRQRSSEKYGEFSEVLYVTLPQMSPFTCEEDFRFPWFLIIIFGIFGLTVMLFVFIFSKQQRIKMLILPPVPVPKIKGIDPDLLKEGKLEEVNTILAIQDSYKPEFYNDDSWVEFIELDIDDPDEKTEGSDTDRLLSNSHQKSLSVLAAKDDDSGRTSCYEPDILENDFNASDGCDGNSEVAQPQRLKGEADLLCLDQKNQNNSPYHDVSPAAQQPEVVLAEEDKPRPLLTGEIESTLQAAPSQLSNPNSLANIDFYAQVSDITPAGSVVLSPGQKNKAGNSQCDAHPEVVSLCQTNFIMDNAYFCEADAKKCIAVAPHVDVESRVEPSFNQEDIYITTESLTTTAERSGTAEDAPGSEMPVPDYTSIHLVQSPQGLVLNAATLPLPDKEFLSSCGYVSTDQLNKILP

[2] = target: T2, GHR-Rluc (rabbit) (UniProt P19941); test: FRET or BRET; BRET in living Hek293-TR cells stably expressing GHR-Rluc (donor) and doxycycline-induced YFP-Jak2 (acceptor); ViviRen 60 µM, 37°C, PBS with 0.1% glucose and 25 mM Hepes; without GH or with 200 ng/ml hGH (0-4 min, 10-14 min)
T2 sequence: T1 sequence

binding [1]: no binding
B1: Flag-Jak2(Y119E) (enzyme, UniProt Q62120 1-1132)
chain: MGMACLTMTEMEATSTSPVHQNGDIPGSANSVKQIEPVLQVYLYHSLGQAEGEYLKFPSGEYVAEEICVAASKACGITPVYHNMFALMSETERIWYPPNHVFHIDESTRHDILYRIRFEFPHWYCSGSSRTYRYGVSRGAEAPLLDDFVMSYLFAQWRHDFVHGWIKVPVTHETQEECLGMAVLDMMRIAKEKDQTPLAVYNSVSYKTFLPKCVRAKIQDYHILTRKRIRYRFRRFIQQFSQCKATARNLKLKYLINLETLQSAFYTEQFEVKESARGPSGEEIFATIIITGNGGIQWSRGKHKESETLTEQDVQLYCDFPDIIDVSIKQANQECSNESRIVTVHKQDGKVLEIELSSLKEALSFVSLIDGYYRLTADAHHYLCKEVAPPAVLENIHSNCHGPISMDFAISKLKKAGNQTGLYVLRCSPKDFNKYFLTFAVERENVIEYKHCLITKNENGEYNLSGTKRNFSNLKDLLNCYQMETVRSDSIIFQFTKCCPPKPKDKSNLLVFRTNGISDVQISPTLQRHNNVNQMVFHKIRNEDLIFNESLGQGTFTKIFKGVRREVGDYGQLHKTEVLLKVLDKAHRNYSESFFEAASMMSQLSHKHLVLNYGVCVCGEENILVQEFVKFGSLDTYLKKNKNSINILWKLGVAKQLAWAMHFLEEKSLIHGNVCAKNILLIREEDRRTGNPPFIKLSDPGISITVLPKDILQERIPWVPPECIENPKNLNLATDKWSFGTTLWEICSGGDKPLSALDSQRKLQFYEDKHQLPAPKWTELANLINNCMDYEPDFRPAFRAVIRDLNSLFTPDYELLTENDMLPNMRIGALGFSGAFEDRDPTQFEERHLKFLQQLGKGNFGSVEMCRYDPLQDNTGEVVAVKKLQHSTEEHLRDFEREIEILKSLQHDNIVKYKGVCYSAGRRNLRLIMEYLPYGSLRDYLQKHKERIDHKKLLQYTSQICKGMEYLGTKRYIHRDLATRNILVENENRVKIGDFGLTKVLPQDKEYYKVKEPGESPIFWYAPESLTESKFSVASDVWSFGVVLYELFTYIEKSKSPPVEFMRMIGNDKQGQMIVFHLIELLKSNGRLPRPEGCPDEIYVIMTECWNNNVSQRPSFRDLSLRVDQIRDSIAA

binding [2]: no binding
B2: YFP-Jak2 Y119E (enzyme, UniProt Q62120 1-1132)
chain: B1 chain

binding [1]: binds
B3: Flag-Jak2(1-525) (domain or fragment, UniProt Q62120 1-525)
chain: MGMACLTMTEMEATSTSPVHQNGDIPGSANSVKQIEPVLQVYLYHSLGQAEGEYLKFPSGEYVAEEICVAASKACGITPVYHNMFALMSETERIWYPPNHVFHIDESTRHDILYRIRFYFPHWYCSGSSRTYRYGVSRGAEAPLLDDFVMSYLFAQWRHDFVHGWIKVPVTHETQEECLGMAVLDMMRIAKEKDQTPLAVYNSVSYKTFLPKCVRAKIQDYHILTRKRIRYRFRRFIQQFSQCKATARNLKLKYLINLETLQSAFYTEQFEVKESARGPSGEEIFATIIITGNGGIQWSRGKHKESETLTEQDVQLYCDFPDIIDVSIKQANQECSNESRIVTVHKQDGKVLEIELSSLKEALSFVSLIDGYYRLTADAHHYLCKEVAPPAVLENIHSNCHGPISMDFAISKLKKAGNQTGLYVLRCSPKDFNKYFLTFAVERENVIEYKHCLITKNENGEYNLSGTKRNFSNLKDLLNCYQMETVRSDSIIFQFTKCCPPKPKDKSNLLVFRTNGISDVQISPT
